This is an account of results in patent US10227347B2, “Purinyl-N-hydroxyl pyrimidine formamide derivative, preparation methods and uses thereof” (Guizhou Bailing Group Pharmaceutical CO., LTD., priority 2015, dated 2019).

Where two headings read alike, the source gives them in different places.

This series deals with MV4-11 subcutaneous tumor. The following applies: t-test vs control group. An excerpt:
During drug administration, measuring the weight and gross tumor volume of the mice per 2 days and keeping a record. The calculation formula is as V=π/6×A^2×B, where, where, V=gross tumor volume (mm^3), A=tumor width (mm) and B=tumor length (mm). Observing and keeping a record for the survival condition of the tested animals. After drug discontinuance, killing the mice through cervical dislocation and peeling off their tumors as per the operation specification of animal experiment. Evaluating the inhibition capability of the compounds to tumor activities by calculating the tumor inhibitory rate with the formula as: tumor inhibitory rate=(1−tumor weight of treatment group/tumor weight of control group)×100%. Analyzing and comparing the difference between each treatment group and control group with the method of t-test. The grading of significance level of difference is: ***, P<0.001; **, P<0.01; *, P<0.05; no statistical significance (ns), P>0.05.

For the compound `COc1ccc(-c2nc(N3CCOCC3)c3nc(CN(C)c4ncc(C(=O)NO)cn4)n(C)c3n2)cn1` [CLJ-1, 2-(((2-(6-methoxypyridine-3-yl)-9-methyl-6-morpholine-9H-purine-8-yl))methyl(methyl)amino)-N-hydroxyl pyrimidine-5-formamide], the Statistic difference entry (10 mg/kg i.v.) is listed as “*** (***, P<0.001)”. The same measure, in the same setting: in the case of `CN(Cc1nc2c(N3CCOCC3)nc(-c3cnc(N)nc3)nc2n1C)c1ncc(C(=O)NO)cn1` [CLJ-11, 2-(((2-(2-aminopyrimidine-5-yl)-9-methyl-6-morpholine-9H-purine-8-yl))methyl(methyl)amino)-N-hydroxyl pyrimidine-5-formamide] it was “** (**, P<0.01)”; in that of `COc1ccc(-c2nc(N3CCOCC3)c3nc(CN(C)c4ncc(C(=O)NO)cn4)n(C)c3n2)cc1` [CLJ-29, 2-(((2-(4-methoxyphenyl)-9-methyl-6-morpholine-9H-purine-8-yl))methyl(methyl)amino)-N-hydroxyl pyrimidine-5-formamide], “*** (***, P<0.001)”. Regarding `CN(Cc1nc2c(N3CCOCC3)nc(-c3ccc(N)cc3)nc2n1C)c1ncc(C(=O)NO)cn1` [CLJ-44], where the note is “10 mg/kg i.v.”, the Statistic difference result is given as “*** (***, P<0.001)”.

For `O=C(CCCCCCC(=O)Nc1ccccc1)NO` [SAHA, vorinostat, reference compound], where the note is “50 mg/kg i.p.”, the Statistic difference result is “ns (no statistical significance (ns), P>0.05)”.
